# Data published in PubChem BioAssay AID493014 (National Center for Advancing Translational Sciences (NCATS), 2011).
# Some of the results follow. These are further read-outs of the screen, such as a control signal, another cell line or another target. No call is given for them. The list favours compounds with an active or inconclusive main result. Potencies come from curve fits of mixed quality, noted in brackets.
# Experiment: qHTS Assay to Find Inhibitors of Chronic Active B-Cell Receptor Signaling
# Conditions: ABC-DLBCL IkBa-CBG/CBR reporter, luminescence ratio (green luciferase fused to IkBa over red control in TMD8 lymphoma cells), 4 h; measured here: CBR red luminescence, cell number
# How it was run: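 TMD8 ABC-DLBCL cells carrying doxycycline-inducible green luciferase fused to IkappaBalpha plus unfused red luciferase were exposed to compounds (up to 46 uM) for 4 hrs at 37C. Activity came from the overlap-corrected green/red luminescence ratio.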
row,Structure (SMILES),AC50
1,Cc1cccc(-n2cnc3cc(C(=O)NC4CCCCCC4)ccc32)c1,"5.62 µM [rising, full curve, poor fit]"
2,O=C(OCC(=O)N1CCc2ccccc21)c1ccncc1,"0.58 µM [falling, full curve, poor fit]"
3,O=C(CCCNS(=O)(=O)c1cccc2nsnc12)NC1CCCCC1,"22.4 µM [falling, single point]"
4,CO[C@@H]1O[C@@H]2COC(c3ccccc3)O[C@@H]2[C@@H](OC)[C@@H]1O (stereo partly drawn),"1.12 µM [rising, partial curve, poor fit]"
5,COc1cc(C(=O)NNC(=O)c2ccc3ccccc3n2)cc(OC)c1OC,"14.6 µM [rising, partial curve]"
6,COc1ccc2c(CC(=O)Nc3ccc(OC)c(NS(=O)(=O)c4ccc(F)cc4)c3)coc2c1,"20.6 µM [falling, single point]"
7,NC(=O)Nc1ccc(C(=O)OCC(=O)NC2CCCc3ccccc32)cc1 (stereo not drawn),"0.92 µM [rising, full curve, poor fit]"
8,Cc1cc(C)c(OCC(=O)N/N=C/c2ccco2)c(C)c1,"25.9 µM [rising, single point]"
9,CCNc1nc(CN2CCOCC2)nc2sc3c(c12)CCC3,"20.6 µM [rising, single point]"
10,O=C(c1sc2ccccc2c1Cl)N(Cc1ccccc1)C1CCS(=O)(=O)C1 (stereo not drawn),"0.0891 µM [rising, full curve, poor fit]"
11,CC(Oc1ccccc1)c1ccnn1S(C)(=O)=O (stereo not drawn),"20.6 µM [rising, single point]"
12,COc1ccc(CC(NC(C)=O)C(=O)NC2CCN(S(=O)(=O)c3ccc(NC(C)=O)cc3)CC2)cc1OC (stereo not drawn),"1 µM [rising, full curve, poor fit]"
13,O=C(NC1CCCCC1)c1ccc(N2CCCC2=O)cc1,"20 µM [falling, partial curve, poor fit]"
14,CCOC(=O)C(=O)Nc1ccc(OC)c(Cl)c1,"14.1 µM [rising, partial curve, poor fit]"
15,Nc1c(C(=O)Nc2ccccc2)sc2nc(-c3ccco3)ccc12,"10 µM [falling, partial curve]"
16,CCn1cnc2cc(NC(=O)c3ccco3)ccc21,"10.3 µM [falling, partial curve, poor fit]"
17,CCCNC(=O)CS(=O)Cc1nc(-c2ccccc2C)oc1C (stereo not drawn),"6.51 µM [rising, single point]"
18,COC(=O)[C@@H]1CCCN1C(=O)CCc1nnc(CCc2c[nH]c3ccccc23)o1,"1 µM [rising, full curve, poor fit]"

# Quoted at random: two entries already listed
row,Structure (SMILES),AC50
4,CO[C@@H]1O[C@@H]2COC(c3ccccc3)O[C@@H]2[C@@H](OC)[C@@H]1O (stereo partly drawn),"1.12 µM [rising, partial curve, poor fit]"
15,Nc1c(C(=O)Nc2ccccc2)sc2nc(-c3ccco3)ccc12,"10 µM [falling, partial curve]"
